Article PMC11252414

Sequences of proteins named here, by UniProt entry; tags and fusion partners are left off. Residues count along the entry.
UniProt P24627, 20-708: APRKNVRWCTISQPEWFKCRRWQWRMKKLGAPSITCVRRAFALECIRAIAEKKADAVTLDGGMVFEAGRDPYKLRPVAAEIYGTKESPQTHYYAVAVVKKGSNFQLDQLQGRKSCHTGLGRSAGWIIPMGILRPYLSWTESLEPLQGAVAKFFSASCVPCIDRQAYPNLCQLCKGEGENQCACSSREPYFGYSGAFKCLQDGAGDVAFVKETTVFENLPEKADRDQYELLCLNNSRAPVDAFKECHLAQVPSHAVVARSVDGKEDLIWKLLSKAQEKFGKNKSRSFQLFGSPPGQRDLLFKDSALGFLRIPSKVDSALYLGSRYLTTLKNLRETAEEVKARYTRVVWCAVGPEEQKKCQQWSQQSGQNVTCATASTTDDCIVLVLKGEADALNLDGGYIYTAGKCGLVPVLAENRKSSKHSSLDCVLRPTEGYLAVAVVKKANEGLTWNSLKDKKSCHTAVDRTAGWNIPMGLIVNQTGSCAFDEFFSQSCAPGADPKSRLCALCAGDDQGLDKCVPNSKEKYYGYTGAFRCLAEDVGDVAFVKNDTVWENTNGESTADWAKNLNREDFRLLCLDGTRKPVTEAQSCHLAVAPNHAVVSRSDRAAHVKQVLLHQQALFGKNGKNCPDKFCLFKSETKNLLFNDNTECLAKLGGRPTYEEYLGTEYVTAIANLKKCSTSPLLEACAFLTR

Target: lactoferrin (LF) (bovine (milk)) (UniProt P24627)
Assay: Ag nanoparticle-enhanced SPR imaging
Settings: cited selection value; 3'-amino, coupled via NHS/EDC to carboxylated porous Si; Selection buffer: PBS (137 mM NaCl, 10 mM Na2HPO4, 2.7 mM KCl, 2 mM KH2PO4) + 1 mM MgCl2, pH 7.4, room temperature; GI fluid at 37 C; commercial protein; single-stranded DNA

## CAGGCAGGACACCGTAACCGGTGCATCTATGGCTACTAGCTCTTCCTGCCTATTTTTTTTTT [Lac 9-2 anti-LF aptamer with T10 spacer]
  Kd: 1.12 nM

For at least one entry, the source does not settle the construct or the ends of the probe.
